Laboratory results taken from the supplement of paper PMC10849652.
The other results are listed elsewhere or left out. Residues, ends and D or L forms follow the SMILES beside them. *: point of attachment. Cbz = O=C(OCc1ccccc1)*

Chains of the proteins cited; added tags and fusions are not shown. Lines headed by an entry give the natural chain unless they say otherwise; changes in a name come on top.
UniProt Q658P3: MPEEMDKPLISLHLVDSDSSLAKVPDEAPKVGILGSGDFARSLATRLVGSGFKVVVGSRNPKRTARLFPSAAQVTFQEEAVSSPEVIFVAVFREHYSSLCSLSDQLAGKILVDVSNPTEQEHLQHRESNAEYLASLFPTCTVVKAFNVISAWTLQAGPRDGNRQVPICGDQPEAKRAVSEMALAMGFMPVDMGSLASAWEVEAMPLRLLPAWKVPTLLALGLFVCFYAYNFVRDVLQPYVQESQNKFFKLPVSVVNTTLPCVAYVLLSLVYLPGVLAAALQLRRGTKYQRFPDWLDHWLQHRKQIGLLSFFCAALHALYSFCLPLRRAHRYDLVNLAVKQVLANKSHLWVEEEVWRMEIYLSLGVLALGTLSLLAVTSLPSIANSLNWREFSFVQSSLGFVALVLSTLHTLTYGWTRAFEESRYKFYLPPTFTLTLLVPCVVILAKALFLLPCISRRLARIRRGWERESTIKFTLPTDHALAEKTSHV
UniProt P05455: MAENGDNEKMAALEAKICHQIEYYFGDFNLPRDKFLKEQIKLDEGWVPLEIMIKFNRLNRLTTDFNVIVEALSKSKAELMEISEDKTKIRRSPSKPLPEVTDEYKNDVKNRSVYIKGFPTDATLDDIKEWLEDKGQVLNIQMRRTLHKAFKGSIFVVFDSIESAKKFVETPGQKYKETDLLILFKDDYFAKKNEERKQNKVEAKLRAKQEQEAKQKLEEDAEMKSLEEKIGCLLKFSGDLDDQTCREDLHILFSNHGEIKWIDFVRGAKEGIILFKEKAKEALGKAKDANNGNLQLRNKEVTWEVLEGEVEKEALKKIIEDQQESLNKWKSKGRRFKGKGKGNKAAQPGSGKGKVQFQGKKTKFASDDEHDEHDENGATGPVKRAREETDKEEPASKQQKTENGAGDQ
UniProt Q8TCT8: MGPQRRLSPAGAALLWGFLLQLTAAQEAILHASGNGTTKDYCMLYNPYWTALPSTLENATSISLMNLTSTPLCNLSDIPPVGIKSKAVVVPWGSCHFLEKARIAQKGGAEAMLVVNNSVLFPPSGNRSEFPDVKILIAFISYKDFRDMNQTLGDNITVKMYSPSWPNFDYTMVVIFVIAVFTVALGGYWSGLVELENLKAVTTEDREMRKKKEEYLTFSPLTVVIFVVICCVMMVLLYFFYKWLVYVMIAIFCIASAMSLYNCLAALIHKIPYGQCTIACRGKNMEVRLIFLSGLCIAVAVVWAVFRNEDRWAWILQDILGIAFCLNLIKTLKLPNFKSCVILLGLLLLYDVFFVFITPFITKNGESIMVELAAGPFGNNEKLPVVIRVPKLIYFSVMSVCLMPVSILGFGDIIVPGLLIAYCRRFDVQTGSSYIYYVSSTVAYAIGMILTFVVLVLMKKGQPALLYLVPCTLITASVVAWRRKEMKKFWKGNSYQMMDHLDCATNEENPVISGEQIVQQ
UniProt P09486: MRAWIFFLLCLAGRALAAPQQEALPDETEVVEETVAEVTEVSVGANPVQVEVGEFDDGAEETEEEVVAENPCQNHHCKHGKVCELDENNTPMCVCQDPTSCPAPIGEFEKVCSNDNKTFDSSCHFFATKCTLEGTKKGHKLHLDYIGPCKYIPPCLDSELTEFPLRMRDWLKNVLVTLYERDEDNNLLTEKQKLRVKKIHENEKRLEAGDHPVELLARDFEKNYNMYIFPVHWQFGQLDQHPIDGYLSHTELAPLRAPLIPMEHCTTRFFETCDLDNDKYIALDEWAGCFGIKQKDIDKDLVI
UniProt P30626: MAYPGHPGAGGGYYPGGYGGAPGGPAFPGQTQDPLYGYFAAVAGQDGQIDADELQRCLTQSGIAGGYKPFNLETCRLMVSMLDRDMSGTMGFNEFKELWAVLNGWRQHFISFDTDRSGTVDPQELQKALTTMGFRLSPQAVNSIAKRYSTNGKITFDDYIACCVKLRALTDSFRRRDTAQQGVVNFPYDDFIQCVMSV
UniProt Q9UQ35: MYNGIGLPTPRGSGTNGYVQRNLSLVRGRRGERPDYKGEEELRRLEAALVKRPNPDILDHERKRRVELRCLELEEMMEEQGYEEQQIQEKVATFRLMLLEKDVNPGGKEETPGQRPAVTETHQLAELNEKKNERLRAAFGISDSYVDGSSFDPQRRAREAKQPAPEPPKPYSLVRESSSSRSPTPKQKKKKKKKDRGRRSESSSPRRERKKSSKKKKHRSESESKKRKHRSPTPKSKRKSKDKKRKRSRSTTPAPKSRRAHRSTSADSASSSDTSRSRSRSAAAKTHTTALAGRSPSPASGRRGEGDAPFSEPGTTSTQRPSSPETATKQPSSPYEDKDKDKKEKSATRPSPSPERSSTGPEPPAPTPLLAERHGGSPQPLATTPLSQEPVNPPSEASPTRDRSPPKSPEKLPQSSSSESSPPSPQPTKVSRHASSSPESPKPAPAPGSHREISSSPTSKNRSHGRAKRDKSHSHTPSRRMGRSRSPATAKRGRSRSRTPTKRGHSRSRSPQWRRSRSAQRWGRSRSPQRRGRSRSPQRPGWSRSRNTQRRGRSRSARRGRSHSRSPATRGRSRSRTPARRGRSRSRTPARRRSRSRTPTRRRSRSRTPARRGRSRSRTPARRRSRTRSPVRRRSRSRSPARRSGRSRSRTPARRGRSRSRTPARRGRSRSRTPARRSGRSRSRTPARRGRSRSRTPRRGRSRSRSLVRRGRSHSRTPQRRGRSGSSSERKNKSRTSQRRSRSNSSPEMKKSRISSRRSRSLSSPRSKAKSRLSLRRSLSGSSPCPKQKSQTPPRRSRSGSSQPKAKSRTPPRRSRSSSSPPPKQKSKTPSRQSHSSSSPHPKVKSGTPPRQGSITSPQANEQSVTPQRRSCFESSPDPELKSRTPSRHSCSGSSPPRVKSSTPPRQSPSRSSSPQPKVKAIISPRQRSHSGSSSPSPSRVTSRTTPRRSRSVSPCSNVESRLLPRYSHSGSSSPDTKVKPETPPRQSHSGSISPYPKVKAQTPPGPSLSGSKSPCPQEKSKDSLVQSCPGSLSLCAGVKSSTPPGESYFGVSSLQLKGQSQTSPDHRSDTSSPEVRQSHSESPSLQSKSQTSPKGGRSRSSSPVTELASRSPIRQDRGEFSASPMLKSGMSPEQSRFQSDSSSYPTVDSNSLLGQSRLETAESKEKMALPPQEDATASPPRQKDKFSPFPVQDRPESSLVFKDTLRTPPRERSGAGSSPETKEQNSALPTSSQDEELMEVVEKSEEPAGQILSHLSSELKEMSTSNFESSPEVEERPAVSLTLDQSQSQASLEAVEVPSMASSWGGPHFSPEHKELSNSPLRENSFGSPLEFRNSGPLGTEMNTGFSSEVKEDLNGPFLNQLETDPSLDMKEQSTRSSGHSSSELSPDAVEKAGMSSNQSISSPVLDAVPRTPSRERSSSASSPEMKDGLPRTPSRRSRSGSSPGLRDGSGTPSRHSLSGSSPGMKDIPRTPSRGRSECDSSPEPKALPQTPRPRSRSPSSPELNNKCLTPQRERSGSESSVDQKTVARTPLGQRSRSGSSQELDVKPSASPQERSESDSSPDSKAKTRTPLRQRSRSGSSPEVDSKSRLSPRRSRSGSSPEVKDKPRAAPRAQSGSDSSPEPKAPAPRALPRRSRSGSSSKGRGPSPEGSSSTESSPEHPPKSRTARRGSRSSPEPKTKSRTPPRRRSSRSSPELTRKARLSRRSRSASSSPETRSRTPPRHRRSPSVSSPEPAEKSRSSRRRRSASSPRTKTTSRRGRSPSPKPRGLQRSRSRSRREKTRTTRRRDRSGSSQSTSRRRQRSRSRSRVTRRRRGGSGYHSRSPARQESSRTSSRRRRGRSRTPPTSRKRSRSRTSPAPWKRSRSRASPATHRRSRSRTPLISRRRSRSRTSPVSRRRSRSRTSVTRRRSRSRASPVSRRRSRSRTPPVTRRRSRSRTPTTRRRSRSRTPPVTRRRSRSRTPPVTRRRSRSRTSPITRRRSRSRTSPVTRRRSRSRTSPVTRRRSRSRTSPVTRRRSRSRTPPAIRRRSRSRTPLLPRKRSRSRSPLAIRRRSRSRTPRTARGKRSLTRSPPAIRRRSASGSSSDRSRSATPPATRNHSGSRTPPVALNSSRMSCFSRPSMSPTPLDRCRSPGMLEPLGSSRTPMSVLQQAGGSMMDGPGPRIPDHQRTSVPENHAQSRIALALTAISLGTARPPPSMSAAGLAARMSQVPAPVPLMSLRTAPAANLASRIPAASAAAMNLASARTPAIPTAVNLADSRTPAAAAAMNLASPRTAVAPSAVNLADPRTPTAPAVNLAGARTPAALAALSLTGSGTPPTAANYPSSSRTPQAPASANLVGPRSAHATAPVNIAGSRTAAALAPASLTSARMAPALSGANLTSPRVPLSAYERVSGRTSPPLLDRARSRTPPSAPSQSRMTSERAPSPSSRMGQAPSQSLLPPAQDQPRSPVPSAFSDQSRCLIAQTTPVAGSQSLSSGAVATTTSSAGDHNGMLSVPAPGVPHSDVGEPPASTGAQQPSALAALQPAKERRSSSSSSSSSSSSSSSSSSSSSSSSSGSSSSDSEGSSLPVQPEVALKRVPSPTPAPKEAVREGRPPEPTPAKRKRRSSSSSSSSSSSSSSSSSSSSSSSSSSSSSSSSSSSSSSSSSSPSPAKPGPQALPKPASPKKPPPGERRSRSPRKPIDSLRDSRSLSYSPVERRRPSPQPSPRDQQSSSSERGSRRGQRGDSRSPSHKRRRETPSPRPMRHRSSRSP
UniProt Q5W111: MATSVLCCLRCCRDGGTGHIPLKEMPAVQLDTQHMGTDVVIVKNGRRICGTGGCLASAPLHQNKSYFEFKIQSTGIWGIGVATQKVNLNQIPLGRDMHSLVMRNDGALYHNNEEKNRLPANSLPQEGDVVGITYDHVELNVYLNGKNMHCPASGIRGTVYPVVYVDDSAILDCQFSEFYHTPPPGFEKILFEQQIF
UniProt Q8NEF9: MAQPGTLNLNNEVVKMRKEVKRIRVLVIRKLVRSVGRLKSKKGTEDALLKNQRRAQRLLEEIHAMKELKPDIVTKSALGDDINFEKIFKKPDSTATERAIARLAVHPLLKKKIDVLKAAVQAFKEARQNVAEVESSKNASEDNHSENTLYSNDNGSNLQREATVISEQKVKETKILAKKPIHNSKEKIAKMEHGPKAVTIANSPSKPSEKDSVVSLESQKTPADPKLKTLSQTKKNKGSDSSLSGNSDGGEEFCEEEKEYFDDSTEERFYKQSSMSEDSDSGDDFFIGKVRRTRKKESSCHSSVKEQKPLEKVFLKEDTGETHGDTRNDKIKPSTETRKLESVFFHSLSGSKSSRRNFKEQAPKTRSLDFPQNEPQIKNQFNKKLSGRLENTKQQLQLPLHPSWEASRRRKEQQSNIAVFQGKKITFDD
UniProt P09132: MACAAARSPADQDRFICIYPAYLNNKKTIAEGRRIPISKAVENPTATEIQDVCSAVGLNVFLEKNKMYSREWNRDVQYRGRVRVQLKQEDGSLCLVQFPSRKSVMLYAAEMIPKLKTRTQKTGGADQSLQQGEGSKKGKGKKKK
UniProt O00506, whole entry, looked up: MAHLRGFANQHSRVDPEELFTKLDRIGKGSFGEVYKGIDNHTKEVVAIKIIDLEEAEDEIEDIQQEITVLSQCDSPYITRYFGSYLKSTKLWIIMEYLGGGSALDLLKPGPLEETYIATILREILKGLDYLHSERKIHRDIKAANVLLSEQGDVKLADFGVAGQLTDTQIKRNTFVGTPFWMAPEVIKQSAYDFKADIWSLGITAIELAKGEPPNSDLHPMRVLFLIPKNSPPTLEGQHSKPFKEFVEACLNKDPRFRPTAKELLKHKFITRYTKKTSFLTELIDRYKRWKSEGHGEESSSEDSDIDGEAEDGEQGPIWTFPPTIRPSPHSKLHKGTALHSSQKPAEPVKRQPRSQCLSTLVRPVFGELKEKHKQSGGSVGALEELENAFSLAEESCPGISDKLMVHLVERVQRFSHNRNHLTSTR

How the values were obtained:
Assay in all cases: log2 fold change, soluble protein after heating vs DMSO (PISA); higher = thermal stabilisation; K562 cells, 10 uM, 30 min; active = over 0.2 and 3.5 SD of the protein, either way, in both replicates (recomputed)
[1] = compound: C#Cc1cccc(Nc2ncnc3cc(OCCOC)c(OCCOC)cc23)c1 [erlotinib]
How it was run: (§1)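 Aliquots of K562 cells (2×10^6 cells/mL) treated with 10 μM compound for 30 min were heated for 3 min over 48°C-58°C. After pooling and extraction in PBS with 0.5% NP-40 at 4°C, soluble protein from a 21,000xg, 90 min spin was quantified by TMTpro 16plex LC-MS/MS with channel sums equalised. Thermal stability is expressed against control samples, from duplicates, as a log2 fold change.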

[2] = compound: C/C(=N\NC(=O)C1=CC(=CC=C1)S(=O)(=O)N2CCOCC2)/C3=C(C=CC(=C3)Cl)O
How it was run: as §1

[3] = compound: C1=CC(=C(C=C1Cl)C2=NC3=NC=CN=C3C(=N2)NC4=CC=NC=C4)F
How it was run: as §1

[4] = compound: C1=CC(=CC=C1C2=NC3=C(N2)C=C(C=C3)C(=O)N)OC4=CC=C(C=C4)Cl
How it was run: as §1

[5] = compound: C1=CC2=C(C=CC(=C2)/C=C\3/C(=O)NC(=NCC4=CC=CS4)S3)N=C1
How it was run: as §1

[6] = compound: C1=CC2=NC=CN=C2C=C1/C=C/3\C(=O)NC(=O)S3
How it was run: as §1

[7] = compound: C1=CC=C(C=C1)C2=NC(=C(N2)C3=CC=NC=C3)C4=CC(=C(C=C4)Cl)O
How it was run: as §1

[8] = compound: C1=CC=C2C(=C1)C3=NNC4=CC=CC(=C43)C2=O
How it was run: as §1

[9] = compound: C1CCN(C1)C(=O)NC2=CC=CC(=C2)NC3=NC=C(C(=N3)NCCC4=CN=CN4)Br
How it was run: as §1

[10] = compound: C1CN(CCC1(CC2=CC=C(C=C2)Cl)N)C3=NC=NC4=C3C=CN4
How it was run: as §1

[11] = compound: C1COCCN1CCN2C3=CC=CC=C3N=C2NC(=O)C4=CC(=CC=C4)[N+](=O)[O-] [IRAK-1-4 Inhibitor I]
How it was run: as §1

[12] = compound: C=CC(=O)N1CCC[C@@H](n2nc(-c3ccc(Oc4ccccc4)cc3)c3c(N)ncnc32)C1 [ibrutinib]
How it was run: as §1

[13] = compound: CC(=O)c1cnc2ccc(-c3cc(Cl)c(O)c(Cl)c3)nc2c1N[C@H]1CC[C@H](CN(C)C)CC1
How it was run: as §1

[14] = compound: CC(C)(C)Cn1c(N)nc2ccc(-c3[nH]c(C(C)(C)C)nc3-c3ccc(F)cc3)nc21 [ralimetinib]
How it was run: as §1

[15] = compound: CC(C)(O)CC(=O)NCCn1ccc2ncnc(Nc3ccc(Oc4cccc(C(F)(F)F)c4)c(Cl)c3)c21
How it was run: as §1

[16] = compound: CC(C)C1=C2N=C(C=C(N2N=C1)NCC3=CC=CC=C3)NCCCCCCN
How it was run: as §1

[17] = compound: CC(C)C[C@@H](C=O)NC(=O)[C@H](CC(C)C)NC(=O)[C@H](CC(C)C)NC(=O)OCc1ccccc1
How it was run: as §1

[18] = compound: CC(C)N(C[C@H]1O[C@@H](n2cnc3c(N)ncnc32)[C@H](O)[C@@H]1O)[C@H]1C[C@@H](CCc2nc3cc(C(C)(C)C)ccc3[nH]2)C1 [pinometostat]
How it was run: as §1

[19] = compound: CC1=C(C2=C(C=C1)C(=O)C3=CC=CC=C3N2CCCN)C
How it was run: as §1

[20] = compound: CC1=C(C(CC(=O)N1)C2=CC=C(C=C2)C(F)(F)F)C(=O)NC3=C(C=C4C(=C3)C=NN4)F
How it was run: as §1

Target	log2 fold change [1]	log2 fold change [2]	log2 fold change [3]	log2 fold change [4]	log2 fold change [5]	log2 fold change [6]	log2 fold change [7]	log2 fold change [8]	log2 fold change [9]	log2 fold change [10]	log2 fold change [11]	log2 fold change [12]	log2 fold change [13]	log2 fold change [14]	log2 fold change [15]	log2 fold change [16]	log2 fold change [17]	log2 fold change [18]	log2 fold change [19]	log2 fold change [20]
STEAP3 isoform 2 (UniProt Q658P3)	inactive: 0.053	inactive: 0.038	inactive: 0.017	inactive: -0.019	inactive: 0.053	inactive: 0.02	inactive: -0.008	inactive: 0.004	inactive: -0.036	inactive: 0.032	inactive: -0.002	inactive: -0.005	inactive: -0.067	inactive: 0.013	inactive: -0.087	inactive: -0.011	inactive: 0.032	inactive: 0.043	inactive: 0.044	
SPTA1 (UniProt P02549)	inactive: -0.018	inactive: 0.017	inactive: -0.238	inactive: -0.028	inactive: 0.03	inactive: 0.004	inactive: -0.038	inactive: -0.014	inactive: -0.074	inactive: -0.173	inactive: -0.103	inactive: -0.05	inactive: 0.051	inactive: 0.205	inactive: 0.018	inactive: -0.313	inactive: 0.171	inactive: 0.29	inactive: -0.096	inactive: -0.038
SSB (UniProt P05455)	inactive: -0.05	inactive: 0.045	inactive: 0.013	inactive: 0.028	inactive: -0.043	inactive: -0.014	inactive: -0.056	inactive: -0.169	inactive: -0.151	inactive: -0.03	inactive: -0.006	inactive: -0.038	inactive: -0.209	inactive: 0.017	inactive: 0.001	inactive: -0.038	inactive: 0.011	inactive: -0.005	active: -0.474	
SPPL2A (UniProt Q8TCT8)	inactive: -0.064	inactive: -0.131	inactive: -0.034	inactive: -0.096	inactive: -0.006	inactive: 0.078	inactive: 0.07	inactive: -0.048	inactive: 0.105	inactive: 0.01	inactive: 0.015	inactive: 0.15	inactive: 0.029	inactive: -0.082	inactive: -0.06	inactive: -0.061	inactive: -0.008	inactive: -0.082	inactive: -0.025	
SPARC (UniProt P09486)	inactive: 0.082	inactive: 0.008	inactive: -0.005	inactive: -0.071	inactive: 0.018	inactive: 0.04	inactive: -0.068	inactive: 0.039	inactive: 0.012	inactive: 0.125	inactive: -0.01	inactive: 0.116	inactive: 0.059	inactive: 0.011	inactive: 0.196	inactive: 0.171	inactive: -0.002	inactive: -0.092	inactive: -0.089	inactive: 0.028
STAT5B (UniProt P51692)	inactive: 0.027	inactive: -0.148	inactive: 0.035	inactive: 0.071	inactive: 0.028	inactive: -0.013	inactive: -0.007	inactive: -0.061	inactive: -0.077	inactive: -0.013	inactive: -0.153	inactive: -0.146	inactive: 0.018	inactive: 0.121	inactive: -0.401	inactive: -0.119	inactive: 0.044	inactive: -0.095	inactive: -0.022	
SRI (UniProt P30626)	inactive: -0.042	inactive: 0.113	inactive: 0.322	inactive: 0.025	inactive: 0.09	inactive: 0.121	inactive: 0.185	inactive: 0.016	inactive: -0.037	inactive: -0.041	inactive: -0.017	inactive: -0.032	inactive: -0.014	inactive: -0.039	inactive: -0.108	inactive: 0.026	inactive: -0.048	inactive: -0.036	inactive: 0.201	
SRRM2 (UniProt Q9UQ35)	inactive: 0.067	inactive: 0.095	inactive: -0.136	inactive: 0.07	inactive: -0.123	inactive: 0.014	inactive: -0.044	inactive: -0.073	inactive: -0.061	inactive: -0.128	inactive: -0.074	inactive: -0.015	inactive: -0.326	inactive: 0.063	inactive: 0.01	inactive: -0.258	inactive: 0.002	inactive: 0.005	inactive: -0.181	
SPRYD7 (UniProt Q5W111)	inactive: 0.043	inactive: -0.003	inactive: -0.031	inactive: -0.003	inactive: 0.117	inactive: 0.052	inactive: -0.004	inactive: -0.004	inactive: 0.059	inactive: 0.016	inactive: 0.057	inactive: -0.005	inactive: 0.014	inactive: 0.002	inactive: -0.138	inactive: -0.041	inactive: -0.025	inactive: 0.002	inactive: -0.01	inactive: 0.04
SRFBP1 (UniProt Q8NEF9)	inactive: -0.256	inactive: -0.082	inactive: -0.114	inactive: 0.039	inactive: -0.03	inactive: 0.104	inactive: -0.08	inactive: 0.082	inactive: 0.069	inactive: -0.065	inactive: -0.081	inactive: -0.037	inactive: -0.099	inactive: -0.022	inactive: 0.091	inactive: 0.137	inactive: 0.25	inactive: 0.018	inactive: 0.023	
SRP19 (UniProt P09132)	inactive: -0.02	inactive: 0.049	inactive: 0.045	inactive: -0.029	inactive: -0.01	inactive: 0.014	inactive: 0.043	inactive: -0.004	inactive: -0.008	inactive: 0.071	inactive: 0.016	inactive: 0.011	inactive: 0.018	inactive: 0.137	inactive: -0.078	inactive: -0.153	inactive: -0.026	inactive: 0.056	inactive: -0.034	inactive: -0.019
SRC isoform 2 (UniProt P12931)	inactive: -0.014	inactive: -0.034	inactive: -0.006	inactive: 0.153	inactive: 0.088	inactive: 0.022	inactive: 0.036	inactive: -0.049	inactive: -0.073	inactive: -0.025	inactive: -0.018		inactive: -0.251	inactive: -0.136	inactive: -0.22	inactive: 0.159	inactive: 0.05	inactive: 0.087	inactive: 0.02	
SPEN (UniProt Q96T58)	inactive: 0.123	inactive: -0.244	inactive: -0.053	inactive: 0.085	inactive: 0.077	inactive: -0.074	inactive: 0.033	inactive: 0.309	inactive: -0.091	inactive: 0.08		inactive: 0.036	inactive: 0.1	inactive: -0.027	inactive: 0.043	inactive: 0.091	inactive: 0.209		inactive: 0.085	inactive: 0.01
SQSTM1 (UniProt Q13501)	inactive: -0.058	inactive: -0.008	inactive: 0.101	inactive: 0.037	inactive: -0.017	inactive: 0.108	inactive: -0.004	inactive: 0.02	inactive: -0.135	inactive: -0.045	inactive: -0.006	inactive: 0.012	active: -0.298	inactive: -0.026	inactive: 0.058	inactive: -0.118	inactive: 0.039	inactive: 0.048	inactive: -0.079	
STK25 (UniProt O00506)	inactive: 0.081	inactive: 0.011	inactive: 0.062	inactive: -0.009	inactive: 0.021	inactive: 0.041	inactive: -0.025	inactive: -0.007	inactive: 0.026	inactive: 0.011	inactive: 0.051	inactive: -0.067	inactive: 0	inactive: 0.015	inactive: -0.039	inactive: -0.02	inactive: 0.066	inactive: 0.034	inactive: 0.08	

Record cards, as listed above. Order of values: log2 fold change [1] | log2 fold change [2] | log2 fold change [3] | log2 fold change [4] | log2 fold change [5] | log2 fold change [6] | log2 fold change [7] | log2 fold change [8] | log2 fold change [9] | log2 fold change [10] | log2 fold change [11] | log2 fold change [12] | log2 fold change [13] | log2 fold change [14] | log2 fold change [15] | log2 fold change [16] | log2 fold change [17] | log2 fold change [18] | log2 fold change [19] | log2 fold change [20]
SPRYD7 (UniProt Q5W111) in the list: inactive: 0.043 | inactive: -0.003 | inactive: -0.031 | inactive: -0.003 | inactive: 0.117 | inactive: 0.052 | inactive: -0.004 | inactive: -0.004 | inactive: 0.059 | inactive: 0.016 | inactive: 0.057 | inactive: -0.005 | inactive: 0.014 | inactive: 0.002 | inactive: -0.138 | inactive: -0.041 | inactive: -0.025 | inactive: 0.002 | inactive: -0.01 | inactive: 0.04
SPARC (UniProt P09486) in the list: inactive: 0.082 | inactive: 0.008 | inactive: -0.005 | inactive: -0.071 | inactive: 0.018 | inactive: 0.04 | inactive: -0.068 | inactive: 0.039 | inactive: 0.012 | inactive: 0.125 | inactive: -0.01 | inactive: 0.116 | inactive: 0.059 | inactive: 0.011 | inactive: 0.196 | inactive: 0.171 | inactive: -0.002 | inactive: -0.092 | inactive: -0.089 | inactive: 0.028
